In article PMC5339343, “Evaluation of Rint1 as a modifier of intestinal tumorigenesis and cancer risk” (PLoS ONE, 2017):
Results are given in words; binding and its absence hold for the method and conditions named. Binding seen in cells or lysates may run through a third protein. Some results given as binding are weak or reduced against the parent protein; the word gives no strength.

Sequences of proteins named here, by UniProt entry; tags and fusion partners are left off. A change or cut given only in a name is not applied to a line headed by its entry.
UniProt Q6NUQ1: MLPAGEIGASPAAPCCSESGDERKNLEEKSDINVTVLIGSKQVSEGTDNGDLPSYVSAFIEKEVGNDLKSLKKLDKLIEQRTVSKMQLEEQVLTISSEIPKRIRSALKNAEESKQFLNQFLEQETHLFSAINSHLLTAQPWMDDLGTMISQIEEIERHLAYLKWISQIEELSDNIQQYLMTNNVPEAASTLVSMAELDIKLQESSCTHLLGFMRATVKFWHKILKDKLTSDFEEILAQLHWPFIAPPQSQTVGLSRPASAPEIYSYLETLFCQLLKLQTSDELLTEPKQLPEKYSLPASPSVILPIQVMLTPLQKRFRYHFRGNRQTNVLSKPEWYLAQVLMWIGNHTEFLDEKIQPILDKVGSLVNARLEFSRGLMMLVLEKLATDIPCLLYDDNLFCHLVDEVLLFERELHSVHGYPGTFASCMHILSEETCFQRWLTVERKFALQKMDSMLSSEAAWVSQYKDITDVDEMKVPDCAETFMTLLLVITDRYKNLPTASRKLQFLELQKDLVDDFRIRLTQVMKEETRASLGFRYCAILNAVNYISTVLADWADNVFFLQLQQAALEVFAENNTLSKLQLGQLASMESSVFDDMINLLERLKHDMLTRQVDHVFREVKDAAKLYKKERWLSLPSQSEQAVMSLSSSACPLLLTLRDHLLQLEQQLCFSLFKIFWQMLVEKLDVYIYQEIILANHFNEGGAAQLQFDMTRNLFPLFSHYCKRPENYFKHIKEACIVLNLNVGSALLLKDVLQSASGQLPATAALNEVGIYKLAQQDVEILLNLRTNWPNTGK

Tests used:
Assay in all cases: co-IP; FLAG-RINT1 plasmids transfected into HEK293T; lysate in TNE buffer (10 mM Tris acetate, 0.5% NP-40, 2 mM EDTA); anti-FLAG M2 affinity gel overnight, eluted with FLAG peptide; blot for endogenous ZW10
[1] = molecular target: FLAG-tagged full-length human RINT1 I152M (human) (UniProt Q6NUQ1)
[2] = molecular target: FLAG-tagged full-length human RINT1 I168T (human) (UniProt Q6NUQ1)
[3] = molecular target: FLAG-tagged full-length human RINT1 I152M; I168T (human) (UniProt Q6NUQ1)
[4] = molecular target: FLAG-tagged full-length human RINT1, wild type (human) (UniProt Q6NUQ1)

Measured: binding

B1: endogenous ZW10 (protein, UniProt O43264 1-779)
chain: MASFVTEVLAHSGRLEKEDLGTRISRLTRRVEEIKGEVCNMISKKYSEFLPSMQSAQGLITQVDKLSEDIDLLKSRIESEVRRDLHVSTGEFTDLKQQLERDSVVLSLLKQLQEFSTAIEEYNCALTEKKYVTGAQRLEEAQKCLKLLKSRKCFDLKILKSLSMELTIQKQNILYHLGEEWQKLIVWKFPPSKDTSSLESYLQTELHLYTEQSHKEEKTPMPPISSVLLAFSVLGELHSKLKSFGQMLLKYILRPLASCPSLHAVIESQPNIVIIRFESIMTNLEYPSPSEVFTKIRLVLEVLQKQLLDLPLDTDLENEKTSTVPLAEMLGDMIWEDLSECLIKNCLVYSIPTNSSKLQQYEEIIQSTEEFENALKEMRFLKGDTTDLLKYARNINSHFANKKCQDVIVAARNLMTSEIHNTVKIIPDSKINVPELPTPDEDNKLEVQKVSNTQYHEVMNLEPENTLDQHSFSLPTCRISESVKKLMELAYQTLLEATTSSDQCAVQLFYSVRNIFHLFHDVVPTYHKENLQKLPQLAAIHHNNCMYIAHHLLTLGHQFRLRLAPILCDGTATFVDLVPGFRRLGTECFLAQMRAQKGELLERLSSARNFSNMDDEENYSAASKAVRQVLHQLKRLGIVWQDVLPVNIYCKAMGTLLNTAISEVIGKITALEDISTEDGDRLYSLCKTVMDEGPQVFAPLSEESKNKKYQEEVPVYVPKWMPFKELMMMLQASLQEIGDRWADGKGPLAAAFSSSEVKALIRALFQNTERRAAALAKIK
binds: all assays above
